As usually defined, the EC50 is the concentration that produces a half-maximal response. In general, IC50 refers to the midpoint of a concentration-inhibition curve.

Chains of the proteins cited; added tags and fusions are not shown.
UniProt A5WYG8, entry or part of it: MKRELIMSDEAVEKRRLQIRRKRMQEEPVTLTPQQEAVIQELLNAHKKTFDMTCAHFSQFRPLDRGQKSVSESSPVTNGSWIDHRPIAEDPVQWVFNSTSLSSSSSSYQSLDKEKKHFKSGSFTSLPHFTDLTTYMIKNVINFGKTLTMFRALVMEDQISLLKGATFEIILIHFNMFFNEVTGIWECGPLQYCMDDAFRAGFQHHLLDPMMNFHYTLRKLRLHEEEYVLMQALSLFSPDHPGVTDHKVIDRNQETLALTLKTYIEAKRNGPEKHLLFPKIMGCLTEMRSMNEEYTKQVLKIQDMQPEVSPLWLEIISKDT

This is an account of results in publication PMC8167039, “A Comparative Study of Human and Zebrafish Pregnane X Receptor Activities of Pesticides and Steroids Using In Vitro Reporter Gene Assays” (Frontiers in Endocrinology, 2021).

Test [1] has as its target T1, zfPXR (Danio rerio, UniProt A5WYG8). Nature of the test: cell-based. How it is done:
The ability of chemicals to modulate the hPXR and zfPXR was investigated in HG5LN, HG5LN-hPXR, HG5LN-zfPXR, and ZFL-zfPXR cell lines after exposure to serial dilutions of the compounds and measurement of luciferase activity. […] Briefly, cells were seeded in 96-well white opaque flat bottom microplates at 0.5 10^5 cells per well in culture medium. […] Cells were then exposed to a concentration range of the compounds by using an automated workstation (Biomek 3000, Beckman Coulter). The final concentration of DMSO in the well never exceeds 0.1% (v/v). After 16h of exposure, medium was removed and 50 µL of test medium containing 0.3 mM D-luciferin were added per well. After 5 min, the production of light was assessed in living cells using microplate reader (MicroBeta, PerkinElmer SAS, Courtabœuf, France).
In the transactivation assay, each compound was tested at various concentrations in three independent experiments at least. For each experiment, tests were performed in quadruplicates for each concentration, and data are expressed by means values with standard deviations. […] This allowed to determine EC50 and IC50 values of tested chemicals.

Test [2] concerns the target T1, zfPXR. Nature of the test: HG5LN Gal4-zfPXR luciferase reporter gene assay, agonism. The class given is cell-based, zebrafish. How it is done:
(§1) The cell lines used in this study are listed in Supplementary Table 3 . The HG5LN, HG5LN Gal4-hPXR and HG5LN Gal4-zfPXR cell lines were previously described ([19]). Briefly, HeLa cells stably transfected with the GAL4RE5-βGlobin-Luc-SVNeo plasmid (HG5LN cell line) ([15]). HG5LN cells were stably transfected with the pSG5-GAL4(DBD)-hPXR(LBD)-puro or pSG5-GAL4(DBD)-zfPXR(LBD)-puro plasmids.
(§2) HG5LN cells were cultured in Dulbecco’s Modified Eagle Medium: Nutrient Mixture F-12 (D-MEM/F-12) containing phenol red and 1 g/L glucose and supplemented with 5% fetal bovine serum, 100 units/mL of penicillin and 100 µg/mL of streptomycin supplemented with 1 mg/mL geneticin in a 5% CO2 humidified atmosphere at 37°C. HG5LN GAL4-hPXR and GAL4-zfPXR were cultured in the same culture medium supplemented with 0.5 µg/mL puromycin.
(§3) The ability of chemicals to modulate the hPXR and zfPXR was investigated in HG5LN, HG5LN-hPXR, HG5LN-zfPXR, and ZFL-zfPXR cell lines after exposure to serial dilutions of the compounds and measurement of luciferase activity. […] Briefly, cells were seeded in 96-well white opaque flat bottom microplates at 0.5 10^5 cells per well in culture medium. […] After 5 min, the production of light was assessed in living cells using microplate reader (MicroBeta, PerkinElmer SAS, Courtabœuf, France). […]
(In a reporter assay the amount or activity of a reporter protein is the signal.)

Test [3] concerns the target T1, zfPXR. In words: HG5LN Gal4-zfPXR luciferase reporter gene assay, antagonism (coexposure with clotrimazole). The class given is cell-based, zebrafish. How it is done: as §1, §2, §3

With `Clc1ccccc1C(c1ccccc1)(c1ccccc1)n1ccnc1` [Clotrimazole, reference compound], the EC50 was determined as 20 ± 2 nM on zfPXR [1] and 30 ± 2 nM at zfPXR [2].

Regarding `Clc1ccc(COC(Cn2ccnc2)c2ccc(Cl)cc2Cl)cc1` (stereo not shown) [Econazole nitrate, reference compound], the IC50 came to 900 ± 50 nM against zfPXR [1] and 2800 ± 100 nM against zfPXR [3].
